Drawing on patent US20230121197A1, “ANTIBODIES SPECIFICALLY BINDING THE CARBOXYMETHYLATED CATALYTIC SUBUNIT OF PROTEIN PHOSPHATASE 2A” (Medizinische Universität Wien, priority 2020, published 2023), this text covers binding for one molecule.

This assay has as its target endogenous PPH21 (yeast (strain BY4741)). Kind of assay: Western blot of yeast lysate (30 µg per lane), hybridoma supernatant 1:50, ECL, 60 min exposure. A general note: Immunoblotting shows a protein as a band on a membrane.

No constants are given. Whether binding was seen depends on the method and setting. Binding can be weak; no strength is given.

B1: 7C10-C5 monoclonal antibody (antibody, V domains shown)
VH: DVQLQESGPGLVKPSQSLSLTCSVTGYSITSGYYWNWIRQFPGNKLEWMGYISYDGSNNYNPSLKNRISITRDTSKNQFFLKLNSVTTEDTATYYCAGRFAYWGQGTLVTVSA
VL: DVLMTQTPLSLPVSLGDQASISCRSSQSIVHSNGNTYLEWYLQKPGQSPKLLIYKVSNRFSGVPDRFSGSGSGTDFTLKINRVEAEDLGVYYCFQGSHVPWTFGGGTKLEIK
notes: Used as hybridoma culture supernatant (ELISA, Western blot, IHC) or at 50 µg/mL (SPR); also called 7C10 X63; clone 7C10-C5
B1: the binding entry is “binds”.
